Patent publication US20210379046A1, “Methods of Treating Diseases Using Kinase Modulators” (Memorial Sloan Kettering Cancer Center, priority 2018, published 2021)

What was measured:
TPC1 cells [1] = assay: Flow cytometry of ESK1 (TCR mimic antibody) binding to TPC1 cells; type: cell-based, human; settings: TPC1, 72 hours treatment
Experimental: If adherent cells, they were seeded one day before treatment.

TPC1 cells [2] = assay: RNA-seq of TPC1 cells after RET inhibitor treatment; type: cell-based, human
Experimental: For RNA-seq analysis total RNA was extracted using the RNeasy Mini Kit (Qiagen) after treatment of TPC-1 cells with either DMSO, AST487 or Cabozantinib for 72 hours. Purified polyA mRNA was subsequently fragmented, and first and second strand cDNA synthesis performed using standard Illumina mRNA TruSeq library preparation protocols. Double stranded cDNA was subsequently processed for TruSeq dual-index Illumina library generation. For sequencing, pooled multiplexed libraries were run on a HiSeq 2500 machine on RAPID mode. Approximately 10 million 76 bp single-end reads were retrieved per replicate condition. Resulting RNA-Seq data was analyzed by removing adaptor sequences using Trimmomatic, aligning sequencing data to GRCh37.75(hg19) with STAR, and genome wide transcript counting using HTSeq to generate a RPKM matrix of transcript counts. This RPKM matrix was further log (log 2) transformed and normalized per gene to obtain the Z-score. Differential gene expression was analyzed by looking at fold changes between experimental conditions.

CCN1CCN(Cc2ccc(NC(=O)Nc3ccc(Oc4cc(NC)ncn4)cc3)cc2C(F)(F)F)CC1 [AST487]
ESK binding after RET inhibitor treatment (TPC1 cells [1]): Increased binding of ESK
newly identified HLA ligands with at least a 2-fold increase in mRNA levels (TPC1 cells [2]; TPC1): four
genes upregulated at least two-fold (TPC1 cells [2]; TPC1, 72 hours): 32
